Data on eight targets can be found in the supplement of paper PMC6411743.

Chains of the proteins cited; added tags and fusions are not shown. Lines headed by an entry give the natural chain unless they say otherwise; changes in a name come on top.
UniProt O43837: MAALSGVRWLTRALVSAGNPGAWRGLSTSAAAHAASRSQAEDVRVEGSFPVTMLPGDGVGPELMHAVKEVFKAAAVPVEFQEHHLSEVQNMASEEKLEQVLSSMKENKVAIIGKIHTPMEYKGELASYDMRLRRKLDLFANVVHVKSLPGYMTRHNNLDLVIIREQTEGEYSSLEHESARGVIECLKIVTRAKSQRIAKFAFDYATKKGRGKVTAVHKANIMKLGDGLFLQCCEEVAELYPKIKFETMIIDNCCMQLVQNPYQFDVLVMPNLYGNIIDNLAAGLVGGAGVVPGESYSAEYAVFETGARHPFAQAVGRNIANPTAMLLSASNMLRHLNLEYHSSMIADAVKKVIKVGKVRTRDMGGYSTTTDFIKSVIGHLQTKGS
UniProt P27448: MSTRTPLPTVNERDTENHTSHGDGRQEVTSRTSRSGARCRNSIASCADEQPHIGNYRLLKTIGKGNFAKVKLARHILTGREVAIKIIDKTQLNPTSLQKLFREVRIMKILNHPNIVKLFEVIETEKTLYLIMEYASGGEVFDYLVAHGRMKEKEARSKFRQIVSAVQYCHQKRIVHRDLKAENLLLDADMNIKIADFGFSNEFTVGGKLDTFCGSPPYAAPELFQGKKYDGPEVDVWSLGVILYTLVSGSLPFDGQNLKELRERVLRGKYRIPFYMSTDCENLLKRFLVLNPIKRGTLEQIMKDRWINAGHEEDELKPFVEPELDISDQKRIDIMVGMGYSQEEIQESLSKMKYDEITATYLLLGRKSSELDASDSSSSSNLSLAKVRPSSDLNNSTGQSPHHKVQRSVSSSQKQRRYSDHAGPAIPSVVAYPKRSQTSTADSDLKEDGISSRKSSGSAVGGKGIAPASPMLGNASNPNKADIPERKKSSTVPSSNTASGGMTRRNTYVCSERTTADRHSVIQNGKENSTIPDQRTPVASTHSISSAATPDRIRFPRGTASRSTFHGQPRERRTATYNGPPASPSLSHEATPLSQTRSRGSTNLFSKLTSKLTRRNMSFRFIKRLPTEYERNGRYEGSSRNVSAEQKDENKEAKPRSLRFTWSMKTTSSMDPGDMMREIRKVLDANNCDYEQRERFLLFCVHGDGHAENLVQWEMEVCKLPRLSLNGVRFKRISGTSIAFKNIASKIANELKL
UniProt Q9Y666: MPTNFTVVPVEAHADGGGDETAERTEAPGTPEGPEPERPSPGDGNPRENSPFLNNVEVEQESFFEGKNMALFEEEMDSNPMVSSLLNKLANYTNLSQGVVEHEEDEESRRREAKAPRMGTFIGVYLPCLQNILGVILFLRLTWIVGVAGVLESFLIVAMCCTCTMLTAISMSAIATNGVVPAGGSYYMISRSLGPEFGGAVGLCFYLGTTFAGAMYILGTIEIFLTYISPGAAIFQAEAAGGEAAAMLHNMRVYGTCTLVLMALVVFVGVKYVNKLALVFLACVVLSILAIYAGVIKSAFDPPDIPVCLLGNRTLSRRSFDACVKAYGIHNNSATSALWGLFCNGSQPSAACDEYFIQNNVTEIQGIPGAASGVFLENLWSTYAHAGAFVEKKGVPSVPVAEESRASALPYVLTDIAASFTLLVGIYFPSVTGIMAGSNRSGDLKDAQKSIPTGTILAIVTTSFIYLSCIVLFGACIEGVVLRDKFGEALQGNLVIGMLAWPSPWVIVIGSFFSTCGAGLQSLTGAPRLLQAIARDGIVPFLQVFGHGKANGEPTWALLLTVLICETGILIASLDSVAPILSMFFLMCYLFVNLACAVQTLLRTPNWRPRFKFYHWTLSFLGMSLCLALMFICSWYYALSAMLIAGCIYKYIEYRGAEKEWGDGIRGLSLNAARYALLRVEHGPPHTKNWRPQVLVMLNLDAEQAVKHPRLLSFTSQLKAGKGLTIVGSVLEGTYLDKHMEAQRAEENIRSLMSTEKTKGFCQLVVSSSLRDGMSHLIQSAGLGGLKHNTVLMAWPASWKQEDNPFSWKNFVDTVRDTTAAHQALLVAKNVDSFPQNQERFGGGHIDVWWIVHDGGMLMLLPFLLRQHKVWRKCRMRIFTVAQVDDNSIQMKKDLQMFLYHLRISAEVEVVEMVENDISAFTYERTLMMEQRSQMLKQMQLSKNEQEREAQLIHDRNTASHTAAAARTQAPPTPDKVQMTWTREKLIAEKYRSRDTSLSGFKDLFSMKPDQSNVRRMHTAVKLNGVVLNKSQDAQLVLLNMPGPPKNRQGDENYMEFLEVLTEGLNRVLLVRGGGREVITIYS
UniProt P49459, whole entry: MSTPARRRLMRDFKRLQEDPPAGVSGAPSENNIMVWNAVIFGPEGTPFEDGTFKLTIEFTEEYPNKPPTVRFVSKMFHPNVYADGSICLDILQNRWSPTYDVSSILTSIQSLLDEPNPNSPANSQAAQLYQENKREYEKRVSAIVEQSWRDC
UniProt Q13617, whole entry: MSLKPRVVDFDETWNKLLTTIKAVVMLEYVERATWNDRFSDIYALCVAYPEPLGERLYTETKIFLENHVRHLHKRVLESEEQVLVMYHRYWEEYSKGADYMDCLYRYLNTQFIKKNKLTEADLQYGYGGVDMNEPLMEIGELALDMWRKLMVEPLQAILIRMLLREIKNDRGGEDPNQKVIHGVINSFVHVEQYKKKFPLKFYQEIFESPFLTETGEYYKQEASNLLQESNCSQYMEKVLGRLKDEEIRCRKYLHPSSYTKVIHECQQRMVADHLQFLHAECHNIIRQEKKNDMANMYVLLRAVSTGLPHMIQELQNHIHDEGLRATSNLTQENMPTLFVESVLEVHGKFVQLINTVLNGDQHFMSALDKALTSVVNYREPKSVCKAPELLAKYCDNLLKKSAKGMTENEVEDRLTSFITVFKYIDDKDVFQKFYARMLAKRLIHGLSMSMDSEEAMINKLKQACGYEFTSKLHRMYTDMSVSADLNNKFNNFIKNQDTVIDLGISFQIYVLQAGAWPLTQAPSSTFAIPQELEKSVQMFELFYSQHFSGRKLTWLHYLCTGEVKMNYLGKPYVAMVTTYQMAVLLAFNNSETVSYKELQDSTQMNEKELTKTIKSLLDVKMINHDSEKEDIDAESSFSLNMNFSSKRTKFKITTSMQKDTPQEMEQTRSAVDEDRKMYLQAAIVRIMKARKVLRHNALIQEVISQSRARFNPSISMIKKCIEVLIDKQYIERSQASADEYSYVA
UniProt P62070: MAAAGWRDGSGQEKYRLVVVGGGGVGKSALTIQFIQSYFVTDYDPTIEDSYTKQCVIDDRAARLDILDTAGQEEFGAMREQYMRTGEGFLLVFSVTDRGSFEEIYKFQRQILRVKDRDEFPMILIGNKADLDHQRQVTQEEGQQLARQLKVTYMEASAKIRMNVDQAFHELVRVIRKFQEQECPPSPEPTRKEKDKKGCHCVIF
UniProt Q8NI36: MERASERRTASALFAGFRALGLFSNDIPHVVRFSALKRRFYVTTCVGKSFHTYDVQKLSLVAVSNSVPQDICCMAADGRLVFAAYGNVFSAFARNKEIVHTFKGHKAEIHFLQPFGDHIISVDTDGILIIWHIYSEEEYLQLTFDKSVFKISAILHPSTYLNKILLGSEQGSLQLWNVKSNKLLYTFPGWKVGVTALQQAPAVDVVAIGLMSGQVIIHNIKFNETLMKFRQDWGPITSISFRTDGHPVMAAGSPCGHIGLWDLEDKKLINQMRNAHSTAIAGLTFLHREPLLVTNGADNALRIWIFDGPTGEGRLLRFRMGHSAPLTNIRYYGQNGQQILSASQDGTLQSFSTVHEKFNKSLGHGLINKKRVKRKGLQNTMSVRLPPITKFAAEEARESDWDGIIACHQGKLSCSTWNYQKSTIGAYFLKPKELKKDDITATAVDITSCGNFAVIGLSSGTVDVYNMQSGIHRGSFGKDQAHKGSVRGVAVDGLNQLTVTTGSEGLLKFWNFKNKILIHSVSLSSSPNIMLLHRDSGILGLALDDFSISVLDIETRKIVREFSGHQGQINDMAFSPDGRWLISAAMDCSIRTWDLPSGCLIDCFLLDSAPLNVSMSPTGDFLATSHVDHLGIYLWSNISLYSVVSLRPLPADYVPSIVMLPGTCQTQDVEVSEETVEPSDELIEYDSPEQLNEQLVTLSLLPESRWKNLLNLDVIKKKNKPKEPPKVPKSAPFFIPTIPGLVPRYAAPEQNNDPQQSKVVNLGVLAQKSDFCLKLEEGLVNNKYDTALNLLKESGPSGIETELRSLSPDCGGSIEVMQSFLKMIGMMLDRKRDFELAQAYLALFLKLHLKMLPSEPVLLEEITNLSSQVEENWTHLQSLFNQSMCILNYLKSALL
UniProt Q96CW1: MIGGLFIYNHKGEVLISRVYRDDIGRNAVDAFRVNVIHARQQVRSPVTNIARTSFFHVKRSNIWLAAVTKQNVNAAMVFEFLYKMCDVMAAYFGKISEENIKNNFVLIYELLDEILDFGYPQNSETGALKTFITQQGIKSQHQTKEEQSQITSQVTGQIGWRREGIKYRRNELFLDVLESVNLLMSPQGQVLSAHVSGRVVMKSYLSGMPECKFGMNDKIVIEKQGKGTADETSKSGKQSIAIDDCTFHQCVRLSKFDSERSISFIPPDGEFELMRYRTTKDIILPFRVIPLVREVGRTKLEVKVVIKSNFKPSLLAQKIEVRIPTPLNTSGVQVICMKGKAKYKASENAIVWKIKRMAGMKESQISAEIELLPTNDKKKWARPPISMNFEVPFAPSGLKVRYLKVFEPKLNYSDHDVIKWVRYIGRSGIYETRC

Compound in the experiment: Nc1nc2c(ncn2[C@@H]2O[C@H](COP(=O)(O)OP(=O)(O)OP(=O)(O)O)[C@@H](O)[C@H]2O)c(=O)[nH]1 [guanosine triphosphate]
Kind of experiment: NP40-soluble protein abundance relative to vehicle (solubility fold change) (ratio); higher = more soluble protein in presence of GTP. Summed up:
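Values are fold changes against the detergent-processed vehicle, based on vsn-normalised intensities. Jurkat crude lysate was treated at eight concentrations from 0.1 to 10 mM (10 min at room temperature, then 3 min at 37 °C), solubilised with 0.8% NP40 and benzonase, ultracentrifuged and analysed by TMT-labelled LC-MS/MS over three independent experiments.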

± gives the standard deviation of the averaged measurements. The list shows a part of the results.

Take A0A087WZN1|O43837 (UniProt O43837): the NP40-soluble protein abundance reads like this: (concentration: 0.1mM) 0.977 ± 0.037; (concentration: 0.5mM) 1.02 ± 0.047; (concentration: 1mM) 0.91 ± 0.039; (concentration: 2mM) 0.925 ± 0.028; (concentration: 4mM) 0.898 ± 0.024; (concentration: 6mM) 0.893 ± 0.033. The NP40-soluble protein abundance was determined as 0.861 ± 0.048 (concentration: 8mM) and 0.87 ± 0.033 (concentration: 10mM).
As to “A0A0A0MT23|A0A0A0MSZ1|J3KNR0 (UniProt P27448)”, the NP40-soluble protein abundance reads like this: (concentration: 0.1mM) 1.08 ± 0.038; (concentration: 0.5mM) 1.1 ± 0.094; (concentration: 1mM) 1.04 ± 0.12; (concentration: 2mM) 0.975 ± 0.11; (concentration: 4mM) 0.949 ± 0.096; (concentration: 6mM) 0.938 ± 0.097. Also, the NP40-soluble protein abundance is, setting by setting: (concentration: 8mM) 0.955 ± 0.094; (concentration: 10mM) 0.953 ± 0.063.
On to A0A0G2JNW7|Q9Y666 (UniProt Q9Y666), for which the NP40-soluble protein abundance was determined as 1.04 ± 0.036 (concentration: 0.1mM); 1.04 ± 0.032 (concentration: 0.5mM); 1 ± 0.026 (concentration: 1mM); 1.02 ± 0.032 (concentration: 2mM); 1.04 ± 0.024 (concentration: 4mM); 1.02 ± 0.036 (concentration: 6mM). Besides, the NP40-soluble protein abundance was 1.06 ± 0.026 (concentration: 8mM) and 1.03 ± 0.036 (concentration: 10mM).
On to A0A0D9SG71|P49459 (UniProt P49459), for which the NP40-soluble protein abundance came to 0.998 ± 0.058 (concentration: 0.1mM); 1 ± 0.08 (concentration: 0.5mM); 1.02 ± 0.067 (concentration: 1mM); 1.01 ± 0.054 (concentration: 2mM); 0.985 ± 0.062 (concentration: 4mM); 0.936 ± 0.045 (concentration: 6mM). The NP40-soluble protein abundance runs as follows: (concentration: 8mM) 1 ± 0.07; (concentration: 10mM) 0.956 ± 0.041.
Regarding “A0A0A0MTN0|Q13617 and related entries (UniProt Q13617)”, the NP40-soluble protein abundance reads like this: (concentration: 0.1mM) 1.05 ± 0.091; (concentration: 0.5mM) 1.05 ± 0.11; (concentration: 1mM) 0.946 ± 0.079; (concentration: 2mM) 0.948 ± 0.12; (concentration: 4mM) 0.931 ± 0.098; (concentration: 6mM) 0.94 ± 0.096. In addition, the NP40-soluble protein abundance reads like this: (concentration: 8mM) 0.915 ± 0.054; (concentration: 10mM) 0.838 ± 0.11.
“A0A0C4DGH2|P62070 and related entries (UniProt P62070)”: the NP40-soluble protein abundance (concentration: 0.1mM) came out at 0.9883 ± 0.0072; the NP40-soluble protein abundance (concentration: 0.5mM) was 0.967 ± 0.079; the NP40-soluble protein abundance (concentration: 1mM) is 0.948 ± 0.11; the NP40-soluble protein abundance (concentration: 2mM) was found to be 0.903 ± 0.042; the NP40-soluble protein abundance (concentration: 4mM) is 0.878 ± 0.043; the NP40-soluble protein abundance (concentration: 6mM) came out at 0.888 ± 0.079. Besides, the NP40-soluble protein abundance is, setting by setting: (concentration: 8mM) 0.919 ± 0.061; (concentration: 10mM) 0.862 ± 0.012.
In the case of A0A0A0MTB8|Q8NI36 (UniProt Q8NI36), the NP40-soluble protein abundance (concentration: 0.1mM) is 1.1 ± 0.013; the NP40-soluble protein abundance (concentration: 0.5mM) stood at 1.18 ± 0.047; the NP40-soluble protein abundance (concentration: 1mM) came out at 1.2 ± 0.064; the NP40-soluble protein abundance (concentration: 2mM) worked out at 1.55 ± 0.056; the NP40-soluble protein abundance (concentration: 4mM) amounted to 2 ± 0.13; the NP40-soluble protein abundance (concentration: 6mM) was 2.39 ± 0.2. For the same target, the NP40-soluble protein abundance (concentration: 8mM) was 2.33 ± 0.13 and the NP40-soluble protein abundance (concentration: 10mM) stood at 2.39 ± 0.3.
In the case of “A0A087WY71|Q96CW1 and related entries (UniProt Q96CW1)”, the NP40-soluble protein abundance by setting is: (concentration: 0.1mM) 1.09 ± 0.11; (concentration: 0.5mM) 1.12 ± 0.17; (concentration: 1mM) 0.947 ± 0.078; (concentration: 2mM) 1.04 ± 0.16; (concentration: 4mM) 1.04 ± 0.14; (concentration: 6mM) 1.03 ± 0.13. Also, the NP40-soluble protein abundance worked out at 0.941 ± 0.023 (concentration: 8mM) and 0.95 ± 0.09 (concentration: 10mM).
